Assay results as given in patent US20200239541A1.
Results are given in words; binding and its absence hold for the method and conditions named. Some binding calls cover weakened binding; strength is not graded here. For part of these data: Sequences can lack the tags named with a protein.

The chains behind the UniProt entries cited, without tags or fusion partners. Residues count along the entry.
UniProt P26718, residues 78-216: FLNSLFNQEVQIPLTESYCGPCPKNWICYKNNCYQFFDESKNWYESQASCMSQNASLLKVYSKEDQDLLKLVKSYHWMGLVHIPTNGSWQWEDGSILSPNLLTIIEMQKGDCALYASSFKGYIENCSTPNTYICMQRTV

T1: murine NKG2D-Fc (murine) (UniProt O54709)
T1 sequence (looked up): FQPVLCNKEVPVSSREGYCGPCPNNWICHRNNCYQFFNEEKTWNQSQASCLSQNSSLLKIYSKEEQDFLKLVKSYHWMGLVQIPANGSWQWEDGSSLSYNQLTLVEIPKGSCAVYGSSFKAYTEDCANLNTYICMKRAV

B1: WED-MICA α1-α2 domain (N69W, K152E, K154D) (ligand)
chain: EPHSLRYNLTVLSWDGSVQSGFLTEVHLDGQPFLRCDRQKCRAKPQGQWAEDVLGNKTWDRETRDLTGWGKDLRMTLAHIKDQKEGLHSLQEIRVCEIHEDNSTRSSQHFYYDGELFLSQNLETKEWTMPQSSRAQTLAMNVRNFLKEDAMETDTHYHAMHADCLQELRRYLKSGVVLRRTVPPMVQVTRSEASGGSGDRVTITCRASQDVSTAVAWYQQKPGKAPKLLIYSASFLYSGVPSRFSGSGSGTDFTLTISSLQPEDFATYYCQQSYTTPPTFGQGTKVEIKGGSSRSSSSGGGGSGGGGEVQLVESGGGLVQPGGSLRLSCAASGFTFTSTGISWVRQAPGKGLEWVGRIYPTNGSTNYADSVKGRFTISADTSKNTAYLQMNSLRAEDTAVYYCARTYGIYDLYVDYTEYVMDYWGQGTLVTVSSGGSSRSSSSGGGGSGGGGDIQMTQSPSSLSASGGSGQITVTCRASGFYPWNITLSWRQDGVSLSHDTQQWGDVLPDGQGTYQTWVATRISQGEEQRFTCYMEHSGQHSTHPVPSGKGSHHHHHH
B2: α1-α2 variant 15 (His-tagged, with attached heterologous polypeptide) (ligand)
chain: EPHSLRYNLTVLSWDGSVQSGFLTEVHLDGQPFLRCDRQKCRAKPQGQWAEDVLGNKTWDRETRDLTGWGKDLRMTLAHIKDQKEGLHSLQEIRVCEIHEDNSTRSSQHFYYDGELFLSQNLETNEWTMPQSSRAQTLAMNVRNFLKEDAMETDTHYHAMRADCLQELRRYLKSGVVLRRTVPPMVQVTRSEASGGSGDRVTITCRASQDVSTAVAWYQQKPGKAPKLLIYSASFLYSGVPSRFSGSGSGTDFTLTISSLQPEDFATYYCQQSYTTPPTFGQGTKVEIKGGSSRSSSSGGGGSGGGGEVQLVESGGGLVQPGGSLRLSCAASGFTFTSTGISWVRQAPGKGLEWVGRIYPTNGSTNYADSVKGRFTISADTSKNTAYLQMNSLRAEDTAVYYCARTYGIYDLYVDYTEYVMDYWGQGTLVTVSSGGSSRSSSSGGGGSGGGGDIQMTQSPSSLSASGGSGQITVTCRASGFYPWNITLSWRQDGVSLSHDTQQWGDVLPDGQGTYQTWVATRISQGEEQRFTCYMEHSGQHSTHPVPSGKGSHHHHHH
B3: α1-α2 variant 16 (His-tagged, with attached heterologous polypeptide) (ligand)
chain: EPHSLRYNLTVLSWDGSVQSGFLTEVHLDGQPFLRCDRQKCRAKPQGQWAEDVLGNKTWDRETRDLTGWGKDLRMTLAHIKDQKEGLHSLQEIRVCEIHEDNSTRSSQHFYYDGELFLSQNLETLEWTMPQSSRAQTLAMNVRNFLKEDAMETDTHYHAMRADCLQELRRYLKSGVVLRRTVPPMVQVTRSEASGGSGDRVTITCRASQDVSTAVAWYQQKPGKAPKLLIYSASFLYSGVPSRFSGSGSGTDFTLTISSLQPEDFATYYCQQSYTTPPTFGQGTKVEIKGGSSRSSSSGGGGSGGGGEVQLVESGGGLVQPGGSLRLSCAASGFTFTSTGISWVRQAPGKGLEWVGRIYPTNGSTNYADSVKGRFTISADTSKNTAYLQMNSLRAEDTAVYYCARTYGIYDLYVDYTEYVMDYWGQGTLVTVSSGGSSRSSSSGGGGSGGGGDIQMTQSPSSLSASGGSGQITVTCRASGFYPWNITLSWRQDGVSLSHDTQQWGDVLPDGQGTYQTWVATRISQGEEQRFTCYMEHSGQHSTHPVPSGKGSHHHHHH
B4: α1-α2 variant 17 (His-tagged, with attached heterologous polypeptide) (ligand)
chain: EPHSLRYNLTVLSWDGSVQSGFLTEVHLDGQPFLRCDRQKCRAKPQGQWAEDVLGNKTWDRETRDLTLWGKDLRMTLAHIKDQKEGLHSLQEIRVCEIHEDNSTRSSQHFYYDGELFLSQNLETLEWTMPQSSRAQTLAMNVRNFLKEDAMETDTHYHAMRADCLQELRRYLKSGVVLRRTVPPMVQVTRSEASGGSGDRVTITCRASQDVSTAVAWYQQKPGKAPKLLIYSASFLYSGVPSRFSGSGSGTDFTLTISSLQPEDFATYYCQQSYTTPPTFGQGTKVEIKGGSSRSSSSGGGGSGGGGEVQLVESGGGLVQPGGSLRLSCAASGFTFTSTGISWVRQAPGKGLEWVGRIYPTNGSTNYADSVKGRFTISADTSKNTAYLQMNSLRAEDTAVYYCARTYGIYDLYVDYTEYVMDYWGQGTLVTVSSGGSSRSSSSGGGGSGGGGDIQMTQSPSSLSASGGSGQITVTCRASGFYPWNITLSWRQDGVSLSHDTQQWGDVLPDGQGTYQTWVATRISQGEEQRFTCYMEHSGQHSTHPVPSGKGSHHHHHH
B5: α1-α2 variant 18 (His-tagged, with attached heterologous polypeptide) (ligand)
chain: EPHSLRYNLTVLSWDGSVQPGFLTEVHLDGQPFLRCDRQKCRAKPQGQWAEDVLGNKTWDRETRDLTLWGKDLRMTLAHIKDQKEGLHSLQEIRVCEIHEDNSTRSSQHFYYDGELFLSQNLETLEWTMPQSSRAQTLAMNVRNFLKEDAMETDTHYHAMRADCLQELRRYLKSGVVLRRTVPPMVQVTRSEASGGSGDRVTITCRASQDVSTAVAWYQQKPGKAPKLLIYSASFLYSGVPSRFSGSGSGTDFTLTISSLQPEDFATYYCQQSYTTPPTFGQGTKVEIKGGSSRSSSSGGGGSGGGGEVQLVESGGGLVQPGGSLRLSCAASGFTFTSTGISWVRQAPGKGLEWVGRIYPTNGSTNYADSVKGRFTISADTSKNTAYLQMNSLRAEDTAVYYCARTYGIYDLYVDYTEYVMDYWGQGTLVTVSSGGSSRSSSSGGGGSGGGGDIQMTQSPSSLSASGGSGQITVTCRASGFYPWNITLSWRQDGVSLSHDTQQWGDVLPDGQGTYQTWVATRISQGEEQRFTCYMEHSGQHSTHPVPSGKGSHHHHHH

Target: biotinylated human NKG2D (Example 1) (human) (UniProt P26718)
Experiment: BLI (Octet)

binding, binds:
B1

Target: T1, murine NKG2D-Fc (murine)
Experiment: competition ELISA with murine NKG2D-Fc

binding, binds:
B2, B3, B4, B1, B5
